Assay results taken from patent publication US20060111274A1.
Results are given in words; binding and its absence hold for the method and conditions named. Some results given as binding are weak or reduced against the parent protein; the word gives no strength.

Legend:
RAF-1 kinase [1] = target: RAF-1 kinase (UniProt P04049); assay: T cells exposed to the peptide; immunoprecipitation studies
RAF-1 kinase [2] = target: RAF-1 kinase (UniProt P04049); assay: inferred from displacement of RAF-1 from the V7 immunocomplex in peptide-treated T cells

binding (RAF-1 kinase [1]): binds | binding (RAF-1 kinase [2]): binds
B1: V7-R7 conjugate (C-terminal cytoplasmic tail peptide of V7, …, with 7 arginine residues attached to its C-terminus) (peptide)
peptide: KLSTLRSNTRRRRRRR
